Measured values published in PubChem BioAssay AID2685 (National Center for Advancing Translational Sciences (NCATS), 2010).
The list shows a part of the results. Further columns of the screen follow, without active or inactive calls. Most of these compounds were active or inconclusive in the main read-out, so they are no random draw. Words in brackets tell the shape of the fitted curve; partial curves, single points and poor fits give uncertain potencies.

Assay: qHTS Assay for Lipid Storage Modulators in Drosophila S3 Cells;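 as to cell number change: cells counted by Cell Tracker Red CMTPX staining in the red channel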
Details: BODIPY lipid droplet fluorescence, 18-24 h; for cell number change: measured here: cell count max response, cells fed with added oleic acid
How it was run: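 Drosophila S3 cells loaded with oleic acid (400 uM, as added) and compounds at several concentrations; lipid droplets imaged by 488-nm laser-scanning cytometry, 500–530 nm intensity and object ratio to cell channel. Percent activity normalized to 20 uM Triacsin C.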

[1] = measured here: lipid fluorescence (Fed channel) AC50, cells fed with added oleic acid
[2] = measured here: cell number channel AC50, cells fed with added oleic acid

Structure (SMILES)	cell number change [%]	AC50 [1]	AC50 [2]
O=C(NC1CCCC1)c1cc(-c2ccccc2Cl)on1	16.8	206 nM [rising, single point]	
O=C(NCc1ccccc1)C1CCCN(S(=O)(=O)c2cccnc2)C1 (centres undefined)		731 nM [rising, partial curve]	1160 nM [rising, partial curve]
O=S1(=O)CCO[C@H]2Cc3ccccc3[C@H]2N1Cc1ccc(F)cc1	18.3		
COC(=O)C1=NN(c2ccccc2)C2C(=O)N(c3ccccc3OC)C(=O)C12 (centres undefined)	47.1	6510 nM [falling, single point]	3260 nM [rising, full curve]
CSCCC(NC(=O)c1ccccc1)C(=O)NCCc1ccc2c(c1)OCCO2 (centres undefined)		291 nM [falling, partial curve, poor fit]	259 nM [falling, full curve, poor fit]
NC(=O)c1cn(Cc2c(F)cccc2F)nn1	-4.1	184 nM [rising, full curve, poor fit]	
CC1CCN(C(=O)CCc2nnc(-c3ccccc3)o2)CC1	-1.8	291 nM [falling, full curve, poor fit]	
CC(/C=C/c1ccco1)=N/NC(=O)CNc1ccccc1C	29.2	25900 nM [rising, single point]	
CC(=O)c1cccc(NS(=O)(=O)c2c(C(=O)N3CCOCC3)c(C)n(C)c2C)c1	-18.1	6510 nM [falling, single point]	
CCCCCCOc1ccc(NC(=O)CC2C(=O)N(CC)C(=S)N2Cc2ccco2)cc1 (centres undefined)	28.3	6510 nM [rising, single point]	
COc1ccc(N2CCN(C(c3cccc(OC)c3OC)c3nnnn3C3CCCC3)CC2)cc1 (centres undefined)	36.2	1840 nM [falling, partial curve]	7310 nM [rising, partial curve, poor fit]
CCOC(=O)C1=C(CSc2nc(-c3ccncc3)ccc2C#N)OC(N)=C(C#N)C1c1cccnc1 (centres undefined)	-10.7	820 nM [rising, single point]	
O=Cc1ccc(OCc2nnc(-c3ccccc3Br)o2)cc1	10.5	4.61 nM [falling, full curve, poor fit]	
CCCN1CCC(=O)N(CCSc2ccccc2)CC1	15		
COc1ccc(-c2ccc(-c3noc(-c4ccc(OC)c(OC)c4)n3)c(OC)n2)cc1	2.15	651 nM [falling, full curve, poor fit]	
Nc1nc(NCc2ccccc2)nc(-c2ccccc2)n1	5.88	5800 nM [rising, full curve]	5170 nM [rising, single point]
COc1ccc(CC(=O)OC(C)CN2CCOCC2)cc1 (centres undefined)	0.186	6510 nM [falling, single point]	
COC(=O)c1ccc(N2C(=O)C3CC=CC(C)C3C2=O)cc1 (centres undefined)	-11.6	8200 nM [falling, partial curve]	
COc1cccc(NC(=O)CCS(=O)(=O)c2cc3c(cc2Cl)NC(=O)CO3)c1	-10.3	29100 nM [falling, single point]	

Structure (SMILES)	cell number change [%]	AC50 [1]	AC50 [2]
Cc1ccc(C(=O)NCc2ccccn2)cc1Cl	8.84	4110 nM [rising, single point]	
C=C1c2cc(C)ccc2NC(=O)N1c1ccccc1	1.12		326 nM [falling, single point]
O=C(C(Cc1ccccc1)N1C(=O)C2C3C=CC(C3)C2C1=O)N1CCCCC1 (centres undefined)	-12.4	5.8 nM [falling, full curve, poor fit]	
CCCS(=O)(=O)N1CCCC(c2nc(-c3ccc(OC)cc3)no2)C1 (centres undefined)		6510 nM [rising, single point]	
O=C(CN1C(=O)NC2(CCc3ccccc3C2)C1=O)NCc1ccco1 (centres undefined)	-5.66	116 nM [rising, full curve, poor fit]	130 nM [rising, full curve, poor fit]
NS(=O)(=O)c1ccc(NC(=O)C2Cc3ccccc3C(=O)O2)cc1 (centres undefined)	19.4		
O=C(NCc1nnc(SCC(=O)N2CCc3ccccc32)o1)c1ccco1	23.9	2590 nM [rising, full curve, poor fit]	3660 nM [rising, full curve, poor fit]
O=C(CNc1cccc2ccccc12)N/N=C/C=C/c1ccco1	21.3	6510 nM [rising, full curve, poor fit]	
Cc1ccc(Sc2ccc(CN3CCCCC3)cc2[N+](=O)[O-])cc1	-12.6	25900 nM [falling, partial curve, poor fit]	
CCCCn1c(N)c(N(CC(C)C)C(=O)c2ccc([N+](=O)[O-])o2)c(=O)[nH]c1=O	15.8	82 nM [falling, full curve, poor fit]	
CCC(C)(C)NC(=O)C(c1ccc(OC)cc1)N(C(=O)CCC(=O)Nc1cc(C)on1)c1ccc(F)cc1 (centres undefined)	5.83		
O=C(NCCc1ccccc1)C(=O)NCCC1CCCCN1S(=O)(=O)c1ccccc1 (centres undefined)	5.94	651 nM [rising, partial curve, poor fit]	
CCOC(=O)C1=C(C)N(C)C(=O)NC1c1ccccc1OC (centres undefined)	-5.4		82 nM [falling, full curve, poor fit]
CCOc1ccc(N2C(=O)CC(NC3CCN(C(=O)c4cccc(Cl)c4)CC3)C2=O)cc1 (centres undefined)	-15		
Cc1ccc(C(=O)N[C@H](C(=O)OCC(=O)Nc2cccc(S(N)(=O)=O)c2)C(C)C)cc1	11.6	2060 nM [falling, partial curve, poor fit]	1640 nM [falling, partial curve]
COc1cccc(C(=O)C2CN(c3ccccc3)CC2c2ccc(Cl)cc2)c1 (centres undefined)	-14.3	2060 nM [rising, partial curve]	
O=C1CCC(C(=O)O)(c2ccccc2)C1 (centres undefined)	2.49	1840 nM [rising, single point]	29.1 nM [rising, full curve, poor fit]
COc1ccc(NC(=O)COc2ccccc2C#N)c(S(=O)(=O)N2CCCCC2)c1	-52	29100 nM [falling, partial curve]	29100 nM [falling, single point]
CCN(CC)S(=O)(=O)c1ccc(S(=O)(=O)Nc2c(C)nn(C)c2C)cc1	-41	6510 nM [falling, partial curve]	8200 nM [falling, full curve]

Structure (SMILES)	cell number change [%]	AC50 [1]	AC50 [2]
O=C(CN1C(=O)CCS(=O)(=O)c2ccccc21)Nc1ccc(F)cc1	25.6		130 nM [rising, full curve, poor fit]
Cc1nc2sc(C(c3ccco3)N3CCN(C(c4ccccc4)c4ccccc4)CC3)c(O)n2n1 (centres undefined)	-155		2310 nM [rising, partial curve]
COc1ccc(Cc2nnc(SCC(=O)Nc3cc(Cl)ccc3OC)[nH]c2=O)cc1	72.1		14600 nM [rising, partial curve]
CCOC(=O)N1CCN(CC(=O)Nc2cc(OC)c(OC)cc2C#N)CC1	-4.75		461 nM [rising, full curve, poor fit]
CC(NC(=O)C12CC3(C)CC(C)(CC(C)(C3)C1)C2)C(=O)O (centres undefined)	-26.1	130 nM [rising, full curve, poor fit]	146 nM [rising, full curve]
COc1cccc(NC(=O)CCC2CCN(C(=O)c3ccc(C(C)=O)s3)CC2)c1	1.42	10300 nM [rising, partial curve]	
COc1ccc(NC(=O)CN(C)C(=O)c2ccc(N3CCCC3)c([N+](=O)[O-])c2)cc1	4.36		
CCCCNC(=O)C1CCN(S(=O)(=O)c2ccc3c(c2)CC(C)N3C(=O)C2CC2)CC1 (centres undefined)	19.2	6510 nM [falling, single point]	
COc1ccc(/C=C/C(=O)N(C)c2ccccc2C(=O)O)cc1	-90.9	32600 nM [falling, partial curve]	32600 nM [falling, partial curve, poor fit]
CC(=O)c1c(C(C)=O)c(C)n(-c2ccc(C(=O)O)cc2)c1C	-48.8	130 nM [falling, full curve]	3260 nM [falling, full curve]
CC(=O)Nc1ccc(S(=O)(=O)NCc2ccc(C)n2C)cc1	-9.21	35500 nM [falling, single point]	
CC12CC(O)C3c4ccc(O)cc4CCC3C1CCC2=O (centres undefined)	-19		2060 nM [falling, partial curve, poor fit]
C=CCNC(=O)COC(=O)CCC(=O)c1cccs1	-7.16	5.17 nM [falling, full curve]	
Cc1ccc(N2CCN(/N=C/C(Cl)=C/c3ccccc3)CC2)cc1			4.61 nM [rising, full curve, poor fit]
Nc1nc2ccccc2n1/N=C/c1ccc([N+](=O)[O-])s1	-14.7	9200 nM [falling, partial curve]	
CCCCc1c(O)nc(SCC(=O)Nc2cccc3ccccc23)n(-c2ccccc2OC)c1=O		29100 nM [falling, single point]	
N#C/C(=C\Nc1ccccc1SC(F)(F)F)c1nc(-c2ccc(F)cc2)cs1	-12.7	6510 nM [falling, single point]	
COc1ccc([N+](=O)[O-])cc1N1C(=O)c2cccc3cccc(c23)C1=O			411 nM [falling, single point]

Arranged by number of heavy atoms (rising): some entries from above.
Structure (SMILES)	cell number change [%]	AC50 [1]	AC50 [2]
C=CCNC(=O)COC(=O)CCC(=O)c1cccs1	-7.16	5.17 nM [falling, full curve]	
Nc1nc2ccccc2n1/N=C/c1ccc([N+](=O)[O-])s1	-14.7	9200 nM [falling, partial curve]	
CC12CC(O)C3c4ccc(O)cc4CCC3C1CCC2=O (centres undefined)	-19		2060 nM [falling, partial curve, poor fit]
CC(=O)c1c(C(C)=O)c(C)n(-c2ccc(C(=O)O)cc2)c1C	-48.8	130 nM [falling, full curve]	3260 nM [falling, full curve]
COc1ccc(/C=C/C(=O)N(C)c2ccccc2C(=O)O)cc1	-90.9	32600 nM [falling, partial curve]	32600 nM [falling, partial curve, poor fit]
Cc1ccc(N2CCN(/N=C/C(Cl)=C/c3ccccc3)CC2)cc1			4.61 nM [rising, full curve, poor fit]
O=C(CN1C(=O)CCS(=O)(=O)c2ccccc21)Nc1ccc(F)cc1	25.6		130 nM [rising, full curve, poor fit]
COc1ccc([N+](=O)[O-])cc1N1C(=O)c2cccc3cccc(c23)C1=O			411 nM [falling, single point]
N#C/C(=C\Nc1ccccc1SC(F)(F)F)c1nc(-c2ccc(F)cc2)cs1	-12.7	6510 nM [falling, single point]	
COc1cccc(NC(=O)CCC2CCN(C(=O)c3ccc(C(C)=O)s3)CC2)c1	1.42	10300 nM [rising, partial curve]	
COc1ccc(Cc2nnc(SCC(=O)Nc3cc(Cl)ccc3OC)[nH]c2=O)cc1	72.1		14600 nM [rising, partial curve]
CCCCNC(=O)C1CCN(S(=O)(=O)c2ccc3c(c2)CC(C)N3C(=O)C2CC2)CC1 (centres undefined)	19.2	6510 nM [falling, single point]	
Cc1nc2sc(C(c3ccco3)N3CCN(C(c4ccccc4)c4ccccc4)CC3)c(O)n2n1 (centres undefined)	-155		2310 nM [rising, partial curve]
